Measured data: PubChem BioAssay AID1508588 (Peter MacCallum Cancer Centre, 2020)

Aim: 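Knock-downs boosting vemurafenib effects on melanoma cell growth or lactate release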 (primary screen)
Cell system: human WM266.4 melanoma cells (BRAF V600 mutant)
Reagent: siRNA pool against human genes, 40 nM
Timing: 96 h from transfection to read-out
Challenge: vemurafenib 300 nM (about IC25), added 48 h after transfection, for 48 h; comparison arm got DMSO vehicle only
Detection: 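Ratios to non-targeting siRNA for cell gain, counted as DAPI nuclei after minus before drug and averaged over two replicates, and for absorbance-read medium lactate per cell; both binned into fold-change classes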
Scale: cell gain with vemurafenib: higher = more cell gain than with non-targeting siRNA; lactate per cell with vemurafenib: higher = more lactate made per cell
Rule for the call: 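a knock-down counts as enhancing when its fold-change classes with vehicle and with vemurafenib, taken together, show a stronger drug effect on cell gain or lactate per cell; exact class pairs not stated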
Calls: active = enhances vemurafenib effect; inactive = no enhancement seen
Shown is a random part of about 18,000 reagents tested. In the full data, 790 (4.4%) were called active. 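Calls rest on a combination of fold-change classes in drug and vehicle arms, not all shown here.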 Some reagents were tested in more than one well and are listed for each.

gene symbol | cell gain with vemurafenib | lactate per cell with vemurafenib | outcome
SUGT1P4-STRA6LP-CCDC180 | 0.35 | 1.72 | inactive
VSNL1 | 0.65 | 0.84 | inactive
MRE11 | 0.54 | 0.74 | inactive
HOXC5 | 0.14 | 1.18 | inactive
HNRNPC | 0.05 | 2.99 | inactive
CGB8 | 0.67 | 0.72 | inactive
UNC5D | 1.06 | 0.4 | inactive
HSPA9 | 0.34 | 2.5 | inactive
DBH | 0.94 | 0.68 | inactive
OR13G1 | -0.05 | 1.06 | inactive
PSG6 | 0.65 | 0.55 | inactive
AXDND1 | 1.03 | 0.64 | inactive
OR4F17 | 1.24 | 0.56 | inactive
SPOPL | 0.58 | 0.9 | inactive
LRRC15 | 0.4 | 1.36 | inactive
MMP25 | 0.65 | 0.68 | inactive
VPS8 | 1.03 | 1.02 | inactive
ATP4A | 0.62 | 1.02 | inactive
FMC1 | 0.49 | 1.02 | inactive
S100A5 | 0.19 | 1.07 | inactive
CALML6 | 0.67 | 0.99 | inactive
METTL25B | 1.28 | 1.19 | inactive
CTSG | 0.73 | 0.69 | inactive
VPS37C | 0.2 | 1.98 | inactive
RCBTB2 | 0.94 | 0.96 | inactive
OR5M8 | 0.91 | 0.82 | inactive
CA10 | -0.09 | 0.88 | inactive
TMCO2 | 0.34 | 0.89 | inactive
GDAP2 | 0.57 | 1.09 | inactive
MYOZ1 | 0.35 | 1.1 | inactive
VASP | 0.47 | -0.15 | active
VPS50 | 0.77 | 0.85 | inactive
ACCS | 0.38 | 0.66 | inactive
CLDN4 | 1.16 | 0.6 | inactive
CHN2 | 0.03 | 1.34 | inactive
ABCA5 | 0.75 | 0.83 | inactive
ACSM4 | 1.15 | 0.84 | inactive
PTPRD | 0.89 | 0.77 | inactive
GRAMD1C | 0.33 | 0.15 | active
POGZ | 0.81 | 0.85 | inactive
MEIS1 | 0.67 | 0.67 | inactive
SLC2A6 | 0.52 | 1.07 | inactive
WDR33 | 1 | 0.67 | inactive
SOX8 | 0.69 | 0.72 | inactive
OSBP | 0.67 | 0.9 | inactive
TRPM6 | 0.77 | 0.43 | inactive
TRPM6 | 0.49 | 0.78 | inactive
HOXC8 | 0.82 | 0.38 | inactive
GINS1 | 0.68 | 1.24 | inactive
HTR7 | 0.95 | 0.32 | active
CFAP43 | 0.78 | 0.5 | inactive
EVL | 0.43 | 1.21 | inactive
OR6C70 | 0.4 | 0.86 | inactive
GLA | 0.39 | 1.23 | inactive
PCSK6 | 0.49 | 1 | inactive
PARP6 | 0.35 | 0.9 | inactive
SPECC1L | 0.69 | 0.36 | inactive
ZFR2 | 0.86 | 0.72 | inactive
GLMP | 0.32 | 2.62 | inactive
OLFML2B | 1.15 | 0.71 | inactive
COPB1 | -0.11 | 0.77 | inactive
GPX7 | 0.37 | 1.42 | inactive
PIWIL1 | 0.71 | 0.66 | inactive
RNF41 | 1.01 | 0.68 | inactive
CD99L2 | 0.36 | 1.02 | inactive
KLF14 | 0.69 | 0.34 | inactive
ISLR2 | 0.66 | 0.58 | inactive
ZNF771 | 0.35 | 1.02 | inactive
RPA2 | 0.08 | 1.52 | inactive
OR9Q1 | 1.22 | 0.57 | inactive
PNLDC1 | 0.45 | 1.46 | inactive
TCEA3 | 0.54 | 1.07 | inactive
SLC7A2 | 0.84 | 1.31 | inactive
CXCL3 | 1.09 | 1.23 | inactive
ZNF793 | 0.81 | 1.44 | inactive
OR1M1 | 0.72 | 0.66 | inactive
CSTF2 | 0.5 | 1.19 | inactive
HTR1B | 0.67 | 0.57 | inactive
CPSF1 | 0.63 | 0.94 | inactive
MITF | 0.26 | 1.84 | inactive
RAB27B | 0.82 | 1.09 | inactive
ITGB2 | 0.64 | 0.97 | inactive
PLCXD1 | 0.42 | 1.25 | inactive
ALKBH3 | 0.66 | 0.28 | inactive
TAS2R14 | 0.88 | 1.2 | inactive
FAM111B | 1 | 0.48 | active
PPP2R1B | 0.34 | 0.82 | inactive
ZNF554 | 0.75 | 0.79 | inactive
PTX3 | 0.26 | 0.85 | inactive
OR4F15 | 1 | 1.09 | inactive
SLC25A22 | 0.52 | 0.52 | inactive
ZMYND15 | 0.36 | 1.19 | inactive
BPIFC | 0.3 | 2.45 | inactive
ITGAE | 0.6 | 1.26 | inactive
FKBP5 | 0.85 | 1 | inactive
IGFBP5 | 0.72 | 0.99 | inactive
TKTL1 | 0.36 | 0.82 | inactive
SPDL1 | 0.22 | 0.86 | inactive
ITM2A | 0.55 | 1.52 | inactive
CRISP2 | 0.15 | 1.12 | inactive
MUC7 | 0.38 | 1.75 | inactive
ZNF438 | 0.6 | 0.48 | inactive
KAT8 | 0.35 | 0.97 | inactive
RBM25 | 0.22 | 1.94 | inactive
OR5P2 | 0.13 | 0.68 | inactive
EXOC2 | 1.11 | 0.8 | inactive
TEKTL1 | 0.65 | 1.29 | inactive
